This assay addresses T1, REPRODUCTIVE MERISTEM 7 (Arabidopsis thaliana) (UniProt Q84R27).
T1 sequence: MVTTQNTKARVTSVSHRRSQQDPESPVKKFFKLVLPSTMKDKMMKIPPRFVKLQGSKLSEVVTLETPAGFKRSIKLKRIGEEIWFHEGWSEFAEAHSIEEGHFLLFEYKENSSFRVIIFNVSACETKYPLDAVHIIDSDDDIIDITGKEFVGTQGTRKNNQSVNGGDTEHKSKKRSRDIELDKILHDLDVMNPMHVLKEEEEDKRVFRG
Briefly: two-hybrid; yeast two-hybrid assays; bait and prey orientation not told in the text shown.

Results are given in words; binding and its absence hold for the method and conditions named.

B1: ARABIDOPSIS THALIANA HOMEOBOX PROTEIN 25 (protein, UniProt Q9FKP8 1-279)
chain: MEFEDNNNNNDEEQEEDMNLHEEEEDDDAVYDSPPLSRVLPKASTESHETTGTTSTGGGGGFMVVHGGGGSRFRFRECLKNQAVNIGGHAVDGCGEFMPAGIEGTIDALKCAACGCHRNFHRKELPYFHHAPPQHQPPPPPPGFYRLPAPVSYRPPPSQAPPLQLALPPPQRERSEDPMETSSAEAGGGIRKRHRTKFTAEQKERMLALAERIGWRIQRQDDEVIQRFCQETGVPRQVLKVWLHNNKHTLGKSPSPLHHHQAPPPPPPQSSFHHEQDQP
As for B1, the binding entry is “no binding”.

Source of the values: paper PMC7385925.
